# Experimental data as given in PubChem BioAssay AID504847 (National Center for Advancing Translational Sciences (NCATS), 2011).
# The chains behind the UniProt entries cited, without tags or fusion partners. Where a name states a change or a piece, a line headed by the entry shows the natural chain unless it says otherwise.
# UniProt P11473: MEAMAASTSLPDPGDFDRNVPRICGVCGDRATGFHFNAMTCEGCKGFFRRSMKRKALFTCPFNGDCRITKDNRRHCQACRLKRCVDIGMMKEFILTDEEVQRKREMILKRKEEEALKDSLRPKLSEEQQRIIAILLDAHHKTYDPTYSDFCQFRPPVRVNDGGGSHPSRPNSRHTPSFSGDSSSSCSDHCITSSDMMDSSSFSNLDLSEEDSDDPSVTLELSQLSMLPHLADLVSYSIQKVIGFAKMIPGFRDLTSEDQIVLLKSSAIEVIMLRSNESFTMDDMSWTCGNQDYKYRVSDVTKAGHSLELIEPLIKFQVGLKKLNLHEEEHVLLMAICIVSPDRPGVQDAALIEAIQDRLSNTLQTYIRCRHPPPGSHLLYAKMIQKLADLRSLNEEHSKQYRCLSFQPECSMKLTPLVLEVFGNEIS
# In all, about 400,000 compounds went through this assay and about 3,700 (0.93%) were called active. The inconclusive results got no clear call from the source; some entries with a clear call stand among them for comparison. The call rests on the fitted dose curve; in most records, active means well fitted inhibition curve with a large enough effect; inconclusive means small, poorly fitted or top-dose-only effect, or another doubt; inactive means no such curve, though single readings can be large or run the other way. Where the call is inconclusive, the potency comes from a doubtful curve fit.
# Biological target: Vitamin D3 receptor (Homo sapiens) (UniProt P11473)
# Experiment: Inhibitors of the vitamin D receptor (VDR): qHTS
# Conditions: VDR-SRC2-3 peptide fluorescence polarization, 2 h; max response, negative = inhibition: stronger effect = lower value
# In short: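 Fluorescence polarization assay of small-molecule disruption of VDR binding to coregulator peptide SRC2-3. Compounds and controls pin-transferred, then read after 2 h incubation at ambient room temperature.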
# On the % scale 0 is the no-effect control and ±100 the full control effect; potency means the concentration at half of the fitted maximal effect.
SMILES,"max response, negative = inhibition",Potency
Nc1nc2ccccc2cc1-c1cccs1,inactive: 9.12%,–
CC(=O)Nc1ccc(S[C@@H](CCN2CC[C@H](C(C)(C)C)CCC2=O)c2ccccc2)cc1,–,"inconclusive: 89.1 µM [inhibitor, single point]"
COC(=O)[C@]1(C)N[C@H](c2ccc(SC3CCCCC3)c(OC)c2)[C@@H]2C(=O)N(C)C(=O)[C@@H]21,inactive: -23%,–
O=c1[nH]cc(C(F)(F)F)cc1NS(=O)(=O)c1ccccc1[N+](=O)[O-],–,"inconclusive: 79.4 µM [inhibitor, single point]"
O=C(c1cnn(C(=O)COc2ccccc2F)c1)c1cc(F)ccc1O,–,"inconclusive: 44.7 µM [inhibitor, partial curve]"
COc1ccccc1N(CC(=O)NC(C)(C)C)S(=O)(=O)c1cccs1,–,"inconclusive: 89.1 µM [inhibitor, single point]"
O=C(CCCN1C(=O)/C(=C/c2ccccc2)SC1=S)Nc1ccc(C(=O)O)c(O)c1,–,"inconclusive: 79.4 µM [inhibitor, single point]"
COc1ccc(SCC(c2ccccc2)N2CCN(CC(C)C)CCC2=O)cc1 (centres undefined),–,"inconclusive: 100 µM [inhibitor, single point]"
NC(=O)NC(=O)COC(=O)c1sc2ccccc2c1Cl,–,"inconclusive: 31.6 µM [inhibitor, single point]"
O=C(/C=C/c1ccc(OCc2ccccc2)cc1)c1cccs1,–,"inconclusive: 15.8 µM [inhibitor, full curve]"
CCn1c(CSc2nnc3ccccn23)nc2cc(C(=O)O)ccc21,–,"inconclusive: 11.2 µM [inhibitor, full curve, poor fit]"
Cc1cccc(CNc2ncncc2-c2ccccc2C)c1,–,"inconclusive: 50.1 µM [inhibitor, partial curve]"
COc1ccc(NC(=O)Cn2cnc3ccc(S(=O)(=O)N4CCC(C)CC4)cc3c2=O)cc1Cl,–,"inconclusive: 89.1 µM [inhibitor, single point]"
Cc1ccc(-n2ccnc(NCCc3ccc(S(N)(=O)=O)cc3)c2=O)c(C)c1,inactive: 8.9%,–
Cc1nc2cc3c(cc2c(C)c1C(=O)OC(C)C)OCO3,–,"inconclusive: 7.94 µM [inhibitor, full curve, poor fit]"
NC(=S)N/N=C1\CCOc2ccc(Cl)cc21,inactive: -2.5%,–
O=C(/C=C/c1ccc[nH]1)c1ccccc1,–,active: 79.4 µM
Cc1cc(C(=O)CN2C(=O)NC3(CCCCC3)C2=O)c(C)n1-c1ccc2c(c1)OCO2,–,"inconclusive: 79.4 µM [inhibitor, single point]"
CC(C)(C)c1cc(C(=O)O)n[nH]1,–,"inconclusive: 25.1 µM [inhibitor, partial curve, poor fit]"
O=C1NC(=O)/C(=C\c2ccc(Cl)nc2)S1,–,"inconclusive: 28.2 µM [inhibitor, partial curve, poor fit]"
Cc1cccc(NNC(N)=S)c1,–,"inconclusive: 89.1 µM [inhibitor, single point]"
O=C(N/N=C/c1ccccc1Cl)c1nc2ccc([N+](=O)[O-])cc2c(=O)[nH]1,–,"inconclusive: 31.6 µM [inhibitor, single point]"

SMILES,"max response, negative = inhibition",Potency
O=C(Nc1ccc2ccccc2c1)c1ccc(Cl)cc1Cl,inactive: -10.8%,–
CC(C)c1nc(-c2ccc([N+](=O)[O-])cc2)cs1,–,"inconclusive: 89.1 µM [inhibitor, single point]"
COc1cc(C(=O)Nc2nc(C)c(Cc3ccc4c(c3)OCO4)s2)cc(OC)c1OC,–,"inconclusive: 22.4 µM [inhibitor, partial curve, poor fit]"
CCCn1c(SCC(=O)NCc2ccc(C)cc2)n[nH]c1=O,inactive: 19.8%,–
Cc1oc(-c2ccc(F)cc2)cc1-c1nn2c(-c3ccoc3C)nnc2s1,–,"inconclusive: 79.4 µM [inhibitor, single point]"
O=C(NN=C(Cc1ccccc1)Cc1ccccc1)c1ccncc1,–,"inconclusive: 2.82 µM [inhibitor, partial curve, poor fit]"
CN(C)Cc1c(C(=O)N/N=C/c2ccc(-c3ccccc3)cc2)nnn1-c1nonc1N,–,"inconclusive: 14.1 µM [inhibitor, partial curve, poor fit]"
CCCCc1nc(NCCNC(=O)c2ccco2)c(C#N)c2c1CSC(C)(C)C2,–,"inconclusive: 89.1 µM [inhibitor, partial curve, poor fit]"
O=C(CCl)N(Cc1cccc([N+](=O)[O-])c1)c1cccc(Cl)c1,–,"inconclusive: 79.4 µM [inhibitor, single point]"
CC(=O)/C(N=Nc1cc2c(cc1[N+](=O)[O-])OCCO2)=C(\C)O,–,"inconclusive: 44.7 µM [inhibitor, partial curve, poor fit]"
O=C1CC(c2ccc(O[C@@H]3OC(CO)[C@@H](O)C(O)C3O)cc2)Oc2cc(O)ccc21 (some centres undefined),inactive: -7.88%,–
Cc1ccc(S(=O)(=O)NCCc2sc3nc(-c4ccccc4)nn3c2C)cc1C,inactive: 12.2%,–
Cc1cccc(N2C(=O)C3CCCN3C2=S)c1 (centres undefined),inactive: 20.1%,–
CCCNc1nc2c(c(=O)[nH]c(=O)n2C)n1CCc1ccccc1,inactive: -20.3%,–
O=c1c2c([nH]n1-c1ccccc1)CCSC2,–,"inconclusive: 14.1 µM [inhibitor, partial curve, poor fit]"
Cc1ccc(N2CCN(S(=O)(=O)c3ccc4oc(=O)c5ncn(C)c5c4c3)CC2)c(C)c1,inactive: 13.4%,–
COc1ccc(-n2c(C)nc3cc(C(=O)NC4CCCC4)ccc32)cc1,–,"inconclusive: 28.2 µM [inhibitor, single point]"
O=C1NN(c2ccccc2)C(=O)/C1=C/c1ccc(-c2cccc(C(=O)O)c2)o1,–,active: 89.1 µM
c1ccc2sc(N3CN(CCN4CCOCC4)CN(c4nc5ccccc5s4)C3)nc2c1,–,"inconclusive: 11.2 µM [inhibitor, single point]"
C[C@H](N)C(=O)N1CCC(C(=O)N[C@@H](Cc2ccccc2)C(=O)Nc2ccc(F)cc2)CC1,–,"inconclusive: 100 µM [inhibitor, partial curve, poor fit]"
CC(=O)Nc1cccc(NC(=O)c2c(-c3ccccc3)noc2C)c1,–,"inconclusive: 1.41 µM [inhibitor, partial curve, poor fit]"
COc1ccc(-n2c(SCC(=O)Nc3nnc(C)s3)nc3c([nH]c4ccccc43)c2=O)cc1,inactive: 6.68%,–

SMILES,"max response, negative = inhibition",Potency
COc1cc(NC(=O)c2cccs2)c(OC)cc1NC(=O)CCC(=O)Nc1cccc2ncccc12,–,"inconclusive: 89.1 µM [inhibitor, partial curve, poor fit]"
CC(C)(C)NC(=S)NNC(=O)c1ccccc1Cl,–,"inconclusive: 44.7 µM [inhibitor, single point]"
Cc1ccccc1CC1(CO)CCCN(C(=O)c2ccc(F)cc2)C1 (centres undefined),inactive: 21.9%,–
COc1cc2ccccc2cc1C(=O)N1CCOCC1,–,"inconclusive: 89.1 µM [inhibitor, single point]"
COc1ccc(S(=O)(=O)Oc2ccc3c(c2)O/C(=C\c2cccnc2)C3=O)cc1,–,"inconclusive: 50.1 µM [inhibitor, partial curve, poor fit]"
O=C(O)c1cccc2c1-c1c(cccc1[N+](=O)[O-])C2,–,"inconclusive: 89.1 µM [inhibitor, partial curve, poor fit]"
O=C(NC1CCCc2ccccc21)C1CCN(c2nnc(-n3cccc3)s2)CC1 (centres undefined),–,"inconclusive: 100 µM [inhibitor, partial curve, poor fit]"
COc1cc(C=CC(=O)c2cc(OC)c(OC)c(OC)c2)cc(OC)c1OC,–,"inconclusive: 56.2 µM [inhibitor, partial curve, poor fit]"
Cc1cccc(C)c1NC(=O)COC(=O)c1cc(=O)c2ccccc2o1,–,"inconclusive: 14.1 µM [inhibitor, partial curve, poor fit]"
COc1ccc(/C=C/C(=O)c2cc(Br)ccc(=O)c2O)cc1,–,active: 50.1 µM
COc1ccc(CN2CCC(CO)(CCOc3ccccc3)CC2)c(OC)c1C,inactive: 1.11%,–
O=C1C=CC(=O)N1c1ccc2c(c1)Cc1cc(F)ccc1-2,–,"inconclusive: 28.2 µM [inhibitor, full curve, poor fit]"
C[C@H](CO)N1C[C@H](C)[C@@H](CN(C)CC2CCCCC2)Oc2c(NC(=O)Cc3ccccc3)cccc2C1=O,–,"inconclusive: 89.1 µM [inhibitor, partial curve, poor fit]"
Cc1ccc(/C=C/C(=O)N2CCCN(C(=O)/C=C/c3ccc(C)cc3)CC2)cc1,inactive: -12.7%,–
Cc1cc(C)nc(SCc2cc(=O)c(OC(=O)c3ccc(Br)o3)co2)n1,–,"inconclusive: 89.1 µM [inhibitor, single point]"
O=c1oc2ccccc2c2c1ncn2CCN1CCOCC1,–,"inconclusive: 79.4 µM [inhibitor, single point]"
COc1ccc(N2C(=O)CC(N3CCN(c4cccc(Cl)c4)CC3)C2=O)cc1 (centres undefined),–,"inconclusive: 100 µM [inhibitor, single point]"
O=S(=O)(c1ccccc1)c1ncc(C(F)(F)F)cc1Cl,–,"inconclusive: 89.1 µM [inhibitor, single point]"
COc1ccccc1NC(=O)C(C)n1cnc2c(oc3nc4c(cc32)CCCC4)c1=O (centres undefined),–,"inconclusive: 89.1 µM [inhibitor, partial curve, poor fit]"
Nc1[nH]n2c(=O)cc(-c3ccccc3)nc2c1N=Nc1ccc(S(N)(=O)=O)cc1,inactive: -5.05%,–

# 6 structures already listed, sorted by length of the SMILES, rising.
SMILES,"max response, negative = inhibition",Potency
COc1cc2ccccc2cc1C(=O)N1CCOCC1,–,"inconclusive: 89.1 µM [inhibitor, single point]"
O=S(=O)(c1ccccc1)c1ncc(C(F)(F)F)cc1Cl,–,"inconclusive: 89.1 µM [inhibitor, single point]"
O=C1C=CC(=O)N1c1ccc2c(c1)Cc1cc(F)ccc1-2,–,"inconclusive: 28.2 µM [inhibitor, full curve, poor fit]"
COc1ccc(/C=C/C(=O)c2cc(Br)ccc(=O)c2O)cc1,–,active: 50.1 µM
Cc1cccc(C)c1NC(=O)COC(=O)c1cc(=O)c2ccccc2o1,–,"inconclusive: 14.1 µM [inhibitor, partial curve, poor fit]"
Nc1[nH]n2c(=O)cc(-c3ccccc3)nc2c1N=Nc1ccc(S(N)(=O)=O)cc1,inactive: -5.05%,–
